Measurements: paper PMC6206164, “Fibroblast Growth Factor Binding Protein 3 (FGFBP3) impacts carbohydrate and lipid metabolism” (Scientific Reports, 2018)

By UniProt entry, the sequences of proteins in these tests, tags left out. Where a name states a change or a piece, a line headed by the entry shows the natural chain unless it says otherwise. Residues count along the entry.
UniProt Q9NSA1, residues 29-209: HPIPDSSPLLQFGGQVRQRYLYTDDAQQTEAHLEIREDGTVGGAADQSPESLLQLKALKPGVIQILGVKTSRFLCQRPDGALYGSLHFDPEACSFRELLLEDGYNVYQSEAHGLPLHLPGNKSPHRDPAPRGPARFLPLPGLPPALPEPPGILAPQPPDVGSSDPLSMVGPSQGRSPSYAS
UniProt Q99N32: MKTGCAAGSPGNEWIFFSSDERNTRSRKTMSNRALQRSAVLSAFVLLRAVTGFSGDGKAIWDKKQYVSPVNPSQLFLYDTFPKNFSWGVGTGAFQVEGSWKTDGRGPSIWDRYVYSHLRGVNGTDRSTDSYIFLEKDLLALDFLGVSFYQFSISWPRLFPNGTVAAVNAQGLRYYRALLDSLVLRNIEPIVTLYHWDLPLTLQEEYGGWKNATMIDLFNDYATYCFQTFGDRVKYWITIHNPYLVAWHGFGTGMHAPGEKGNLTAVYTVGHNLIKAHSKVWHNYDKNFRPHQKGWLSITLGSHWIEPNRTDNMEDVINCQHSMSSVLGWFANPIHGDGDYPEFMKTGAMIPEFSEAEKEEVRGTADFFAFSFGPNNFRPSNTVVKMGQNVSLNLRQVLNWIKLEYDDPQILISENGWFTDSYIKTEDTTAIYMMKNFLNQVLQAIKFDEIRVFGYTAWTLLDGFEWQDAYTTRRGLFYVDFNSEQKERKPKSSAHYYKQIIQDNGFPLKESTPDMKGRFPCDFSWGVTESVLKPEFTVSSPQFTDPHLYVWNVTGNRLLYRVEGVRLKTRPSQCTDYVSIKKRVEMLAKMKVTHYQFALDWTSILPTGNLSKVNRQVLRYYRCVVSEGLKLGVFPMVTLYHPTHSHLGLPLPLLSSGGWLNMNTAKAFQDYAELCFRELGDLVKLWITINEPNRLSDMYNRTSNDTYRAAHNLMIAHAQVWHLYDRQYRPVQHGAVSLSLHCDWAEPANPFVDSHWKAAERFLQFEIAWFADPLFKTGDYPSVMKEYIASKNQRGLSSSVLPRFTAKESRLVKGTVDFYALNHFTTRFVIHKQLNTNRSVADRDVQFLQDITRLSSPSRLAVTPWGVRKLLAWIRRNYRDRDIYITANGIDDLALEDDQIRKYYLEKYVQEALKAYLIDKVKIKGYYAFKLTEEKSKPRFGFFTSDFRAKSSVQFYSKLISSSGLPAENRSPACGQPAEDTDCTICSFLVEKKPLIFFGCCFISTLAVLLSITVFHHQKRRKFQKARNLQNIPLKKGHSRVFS

Key:
[1] = molecular target: T1, Recombinant FGF15 (mouse) (UniProt O35622); assay: ELISA; solid-phase equilibrium binding; FGF coated on the plate; MBP-tagged protein in serial dilutions, 2 h room temperature; detection with anti-MBP antibody; both purified
T1 sequence: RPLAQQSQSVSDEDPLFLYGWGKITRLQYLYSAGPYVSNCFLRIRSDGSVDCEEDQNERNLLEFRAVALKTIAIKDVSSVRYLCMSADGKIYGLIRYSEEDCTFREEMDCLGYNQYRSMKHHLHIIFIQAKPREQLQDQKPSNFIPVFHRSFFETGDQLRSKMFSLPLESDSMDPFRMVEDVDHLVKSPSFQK

[2] = molecular target: Recombinant human FGF21 (human) (UniProt Q9NSA1); assay: ELISA; competitive binding; increasing excess of KLB or KLa bound to immobilised FGF19 or FGF21 (2.5 μg/ml) for 1 h before BP3 or MBP control (0.15 μg/ml); MaxiSorp plates; both purified
[3] = molecular target: Human recombinant FGF19 (human) (UniProt O95750); assay: as above

## MBP-tagged C66 fusion protein (C-terminal fragment of the BP3 protein) (human) (domain or fragment)
[1]
  binding: binds

## Recombinant mouse β-Klotho (from UniProt Q99N32) (receptor)
[2]
  binding: binds
[3]
  binding: binds

No constants are given. Whether binding was seen depends on the method and setting. Binding can be weak; no strength is given.
